# Test results taken from paper PMC8275450.
# By UniProt entry, the sequences of proteins in these tests, tags left out. Where a name states a change or a piece, a line headed by the entry shows the natural chain unless it says otherwise.
# UniProt Q8IE95: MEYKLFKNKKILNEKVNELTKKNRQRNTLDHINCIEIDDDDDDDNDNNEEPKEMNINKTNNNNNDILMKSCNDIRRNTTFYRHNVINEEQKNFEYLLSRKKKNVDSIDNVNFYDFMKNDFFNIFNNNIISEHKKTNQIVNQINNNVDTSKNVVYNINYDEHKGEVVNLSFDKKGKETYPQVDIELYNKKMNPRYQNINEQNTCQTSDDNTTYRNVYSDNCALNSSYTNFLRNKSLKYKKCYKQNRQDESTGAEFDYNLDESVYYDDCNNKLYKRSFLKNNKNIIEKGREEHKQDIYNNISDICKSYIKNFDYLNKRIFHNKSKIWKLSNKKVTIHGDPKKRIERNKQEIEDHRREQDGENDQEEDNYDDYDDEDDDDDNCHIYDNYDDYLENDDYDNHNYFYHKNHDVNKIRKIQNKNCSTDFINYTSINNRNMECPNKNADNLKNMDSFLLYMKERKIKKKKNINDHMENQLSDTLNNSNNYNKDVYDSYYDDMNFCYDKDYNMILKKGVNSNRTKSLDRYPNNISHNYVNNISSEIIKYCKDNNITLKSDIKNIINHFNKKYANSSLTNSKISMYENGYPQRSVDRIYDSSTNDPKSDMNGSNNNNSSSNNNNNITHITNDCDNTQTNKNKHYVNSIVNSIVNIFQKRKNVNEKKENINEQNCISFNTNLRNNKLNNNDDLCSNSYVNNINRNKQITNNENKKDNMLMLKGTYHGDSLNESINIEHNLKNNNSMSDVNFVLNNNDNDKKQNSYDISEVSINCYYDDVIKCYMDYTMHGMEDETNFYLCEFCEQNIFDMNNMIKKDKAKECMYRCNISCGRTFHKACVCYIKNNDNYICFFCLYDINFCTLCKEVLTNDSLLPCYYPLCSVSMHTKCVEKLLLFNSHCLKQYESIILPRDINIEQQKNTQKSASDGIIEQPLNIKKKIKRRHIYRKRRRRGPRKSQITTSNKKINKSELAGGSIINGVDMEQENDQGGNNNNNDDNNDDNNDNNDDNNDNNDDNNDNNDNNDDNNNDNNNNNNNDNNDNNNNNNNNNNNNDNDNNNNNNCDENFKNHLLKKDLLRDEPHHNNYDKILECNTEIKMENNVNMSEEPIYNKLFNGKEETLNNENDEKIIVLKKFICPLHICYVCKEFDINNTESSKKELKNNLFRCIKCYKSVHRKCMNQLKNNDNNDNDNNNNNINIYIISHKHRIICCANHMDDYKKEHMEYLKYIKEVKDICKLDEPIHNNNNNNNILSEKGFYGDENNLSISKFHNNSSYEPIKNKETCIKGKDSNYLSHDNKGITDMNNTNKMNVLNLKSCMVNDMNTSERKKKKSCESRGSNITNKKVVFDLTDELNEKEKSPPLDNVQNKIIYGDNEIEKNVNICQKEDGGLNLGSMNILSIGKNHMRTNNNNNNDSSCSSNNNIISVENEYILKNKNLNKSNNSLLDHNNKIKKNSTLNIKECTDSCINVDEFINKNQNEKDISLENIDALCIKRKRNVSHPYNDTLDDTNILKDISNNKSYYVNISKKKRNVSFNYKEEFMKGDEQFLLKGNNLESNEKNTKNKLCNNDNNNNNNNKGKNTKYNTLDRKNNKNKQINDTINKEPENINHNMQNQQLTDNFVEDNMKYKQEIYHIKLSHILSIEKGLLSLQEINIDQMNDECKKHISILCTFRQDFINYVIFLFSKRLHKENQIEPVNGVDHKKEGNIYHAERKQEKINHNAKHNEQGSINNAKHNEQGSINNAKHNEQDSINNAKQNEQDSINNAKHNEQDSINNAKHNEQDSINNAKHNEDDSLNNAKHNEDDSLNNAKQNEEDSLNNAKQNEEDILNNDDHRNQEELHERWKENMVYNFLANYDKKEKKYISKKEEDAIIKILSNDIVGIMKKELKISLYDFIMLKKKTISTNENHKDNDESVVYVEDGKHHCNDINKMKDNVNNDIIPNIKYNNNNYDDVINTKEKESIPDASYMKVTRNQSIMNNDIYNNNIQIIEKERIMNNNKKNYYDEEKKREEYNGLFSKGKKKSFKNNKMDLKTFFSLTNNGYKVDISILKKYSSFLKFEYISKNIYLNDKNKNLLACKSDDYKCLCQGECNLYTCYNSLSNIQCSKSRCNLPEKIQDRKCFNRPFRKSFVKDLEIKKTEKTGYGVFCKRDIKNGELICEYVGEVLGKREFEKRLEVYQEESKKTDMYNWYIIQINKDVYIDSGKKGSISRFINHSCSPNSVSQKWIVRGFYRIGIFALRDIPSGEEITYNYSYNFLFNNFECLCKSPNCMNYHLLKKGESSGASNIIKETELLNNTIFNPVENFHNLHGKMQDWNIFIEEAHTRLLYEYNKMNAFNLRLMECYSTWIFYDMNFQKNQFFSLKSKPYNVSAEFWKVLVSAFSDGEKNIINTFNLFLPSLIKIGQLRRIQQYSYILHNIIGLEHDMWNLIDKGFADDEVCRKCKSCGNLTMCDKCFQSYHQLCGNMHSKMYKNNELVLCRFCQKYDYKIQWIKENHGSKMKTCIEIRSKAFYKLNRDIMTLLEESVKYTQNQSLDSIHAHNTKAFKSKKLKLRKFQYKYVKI
# UniProt C0H4W3: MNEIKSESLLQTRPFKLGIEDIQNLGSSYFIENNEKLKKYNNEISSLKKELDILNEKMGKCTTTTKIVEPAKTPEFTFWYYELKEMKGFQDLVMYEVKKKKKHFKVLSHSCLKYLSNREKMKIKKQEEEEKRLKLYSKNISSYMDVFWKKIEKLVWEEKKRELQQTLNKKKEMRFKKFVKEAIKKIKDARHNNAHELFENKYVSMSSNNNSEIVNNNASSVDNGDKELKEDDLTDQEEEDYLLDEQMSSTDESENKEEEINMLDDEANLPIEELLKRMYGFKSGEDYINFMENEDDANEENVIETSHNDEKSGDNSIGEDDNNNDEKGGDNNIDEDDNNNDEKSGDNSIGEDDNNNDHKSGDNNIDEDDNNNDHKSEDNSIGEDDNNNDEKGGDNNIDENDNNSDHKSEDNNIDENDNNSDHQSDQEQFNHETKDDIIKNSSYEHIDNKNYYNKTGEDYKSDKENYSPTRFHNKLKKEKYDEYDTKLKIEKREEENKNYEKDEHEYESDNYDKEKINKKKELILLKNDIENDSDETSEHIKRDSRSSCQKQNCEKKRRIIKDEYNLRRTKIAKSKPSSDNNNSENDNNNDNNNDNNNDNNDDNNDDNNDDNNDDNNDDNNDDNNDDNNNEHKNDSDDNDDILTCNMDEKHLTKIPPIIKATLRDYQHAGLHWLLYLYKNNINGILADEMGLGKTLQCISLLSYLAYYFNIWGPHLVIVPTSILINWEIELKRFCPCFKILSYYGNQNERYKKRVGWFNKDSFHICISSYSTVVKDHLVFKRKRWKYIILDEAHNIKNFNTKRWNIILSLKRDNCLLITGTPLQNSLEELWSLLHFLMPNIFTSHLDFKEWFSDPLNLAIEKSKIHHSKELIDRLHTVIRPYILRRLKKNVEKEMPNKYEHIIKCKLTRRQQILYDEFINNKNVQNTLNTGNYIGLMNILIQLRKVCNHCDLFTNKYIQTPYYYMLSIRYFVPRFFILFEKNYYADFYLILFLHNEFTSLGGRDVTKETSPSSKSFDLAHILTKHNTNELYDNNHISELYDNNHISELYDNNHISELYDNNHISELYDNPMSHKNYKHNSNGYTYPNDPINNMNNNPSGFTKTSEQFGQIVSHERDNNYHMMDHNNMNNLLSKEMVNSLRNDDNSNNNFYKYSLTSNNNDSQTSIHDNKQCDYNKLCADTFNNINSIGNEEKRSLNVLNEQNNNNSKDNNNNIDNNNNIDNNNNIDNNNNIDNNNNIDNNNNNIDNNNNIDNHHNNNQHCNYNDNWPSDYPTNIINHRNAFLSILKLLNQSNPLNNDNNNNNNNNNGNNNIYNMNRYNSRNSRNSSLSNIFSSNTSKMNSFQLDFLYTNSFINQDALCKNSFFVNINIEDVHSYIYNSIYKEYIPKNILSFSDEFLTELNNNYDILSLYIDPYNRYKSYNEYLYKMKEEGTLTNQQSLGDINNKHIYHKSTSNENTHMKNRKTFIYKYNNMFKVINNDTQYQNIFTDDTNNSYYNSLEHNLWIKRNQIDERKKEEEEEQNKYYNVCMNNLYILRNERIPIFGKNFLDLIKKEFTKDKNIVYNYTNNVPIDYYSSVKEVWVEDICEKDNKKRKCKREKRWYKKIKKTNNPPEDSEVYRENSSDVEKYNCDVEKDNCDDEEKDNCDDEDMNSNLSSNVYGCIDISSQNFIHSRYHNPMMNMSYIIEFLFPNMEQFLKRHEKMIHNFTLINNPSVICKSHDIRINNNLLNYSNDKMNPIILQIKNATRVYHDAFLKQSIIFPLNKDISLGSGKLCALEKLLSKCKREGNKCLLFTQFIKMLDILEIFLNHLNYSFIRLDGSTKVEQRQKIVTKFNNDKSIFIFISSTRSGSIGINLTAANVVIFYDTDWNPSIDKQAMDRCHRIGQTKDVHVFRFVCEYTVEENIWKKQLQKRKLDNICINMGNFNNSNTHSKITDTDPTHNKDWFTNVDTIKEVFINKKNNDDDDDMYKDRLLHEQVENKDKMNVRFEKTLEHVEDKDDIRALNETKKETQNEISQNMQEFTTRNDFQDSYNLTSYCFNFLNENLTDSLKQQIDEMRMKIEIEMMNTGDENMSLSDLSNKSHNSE
# Molecular target: PfAP2-O-GFP-HA-DD24 (Plasmodium falciparum (NF54)) (UniProt Q8IHT5)
# Assay: affinity purification with mass spectrometry; PfAP2-O-GFP-HA-DD24 immunoprecipitated via the HA tag (HA-Tag C29F4 rabbit mAb Sepharose beads) from a total protein extract of schizonts; eluate on 12% SDS gel, silver stained; three bands (70, 30, 15 kDa) absent from NF54 wild-type control excised, trypsin-digested, LTQ-Orbitrap Velos
row,Molecule,binding
1,"histone-lysine N-methyltransferase SET2 (encoded by PF3D7_1322100, PfSET2/PfSET-VS) (from UniProt Q8IE95) (enzyme)",binds
2,"Pf08_0048, putative Snf2-related CBP activator (chromatin remodeler) (from UniProt C0H4W3 1-2082)",binds
3,histone-lysine N-methyltransferase SET1 (encoded by PF3D7_0629700) (from UniProt C6KTD2 1-6753) (enzyme),binds
4,ApiAP2 family member PF3D7_0420300/PFD0985W (from UniProt Q8I1N6 1-3473),binds
5,"167 kDa protein PF3D7_0216700/PFB0765w, predicted to be related to autophagy (protein, UniProt Q8I659 1-1383) MVILGDEKESYTSYCDKNNDILISKQKIEDLKKSIENLLNDKNAHYELNHIKRSLNELDIYTKNKSDLFNNYNLNESLNDSYKDKTFEELKSQLIKQKNLNSCLSLKLKSIHIKLNNLFLKKNEFEKTINNKIKEIELQFLIIQNVTHENKGIPISKELKEQEKHLQNSHENVAIYDTHEIENNDKKKLYTNFHNEEKDHLKCLLEEYSKTLEIYKMGKIQLEFELKCCKEKLNEEIEKNNNYNNKMKSYEIHIDVVKNENCKNLEELNDLKLQLEKTKSENNQNYVKNKILNDEKNNLDKINNDLKIKIKNFKTLLNDAQNKEYILNNFTQKIFNIITYLKNNDEHNFLNDKIHNKLDINQDQIYVQTELYIDIISSSIRNLINFKKTLEERNVELEKVTHEMKELRKELILKKKNYEELRLKLNHLECVERDSVKINSEKEKGEKVIYELKEKLDNDEKIINDLKKKNSYQVYKMKDYEKRENNLINEINKLKLFIEENKMTVERGNEMNNKKLEEMKQKNKELINNLNDISDELKNCIEQVNSVSRNMANVEKEKENIINELQILRMKNDTMRKRISKFVEQEKVLKFKLYTLNNDIFSKNEKLNDMQKKLNDVNEKYKNIVECLNNYKTEHKEQIEKKIERINTLKQNYYYLKKEYDLKNKELEKNIEHGKKLEHELSHCYEENQKLNEEIKRRNSFIKNKDRKIDLLTNIENELLKKKEINNIKLMEKQNVIKNNEQLLKDIKDENEKMNEHVNKLQNELIKRELQNKCISKDIEFCKKEKEDKIKNLEDDLLEKKKCIENLKDELINIKKKMEDKMHMTNEMDLLSNKVEELNRINKTYEKNIVELNNELDVIKKKLNDEEFLKEEEKKKNIDMVYKIKEYEIQIKEKENEIDSLKKNEQNLHVLKNEELNEKEIILKNKYDKEINMIIEQYNKKIQEEKDMLNNKIKSMDQTHKNQIEEMQEENKKELKRLKNVCDMNLQSQILIKENEKHMQEKVEEYKNLLKQKDQELKNIIQEYDERIEIQNKEMEDIVNDCEEKLKQAKINNKKLTTATNMANNNNMLMDENLKEKDKKINDLMKDMEKKKEEINKLVEEKSKLEHSHVKIQNEMSLLVEQNEKLKEEMGLSRIAIKDMEEIKKDMEKYEEEKKKNEEERKKNEEERKKNEEERKKNEEEKKKNEEERKKNEEEKKKLEKDKHQFEEEKERMEIYEHQKEDRKRKDKKKKGHSSDKEEKYNKKEKTKEKSSNILFDEEYIIQLEELRDTGENCFIYLKSLSKELDVIINKLKSKDDALLNDAFNKINLAITSWNIFNEENKEGDNITTVENTATEGNITIDENTTEVEMNNEEVYKIFSVEKYDMLKKEVGEKVECIQKLIG",binds

# Results are given in words; binding and its absence hold for the method and conditions named. Binding seen in cells or lysates may run through a third protein. Here binding means that the protein was enriched with, or labelled near, the bait; the list need not be complete.
